Data published in publication doi:10.1101/2021.10.04.463079.
Results are given in words; binding and its absence hold for the method and conditions named. In cells and extracts the contact can be indirect. Some results given as binding are weak or reduced against the parent protein; the word gives no strength. Where a sequence is shown, tags or fusion partners need not be part of it.

Protein sequences, listed by entry. Tags and fused reporters are not part of them.
UniProt P99999: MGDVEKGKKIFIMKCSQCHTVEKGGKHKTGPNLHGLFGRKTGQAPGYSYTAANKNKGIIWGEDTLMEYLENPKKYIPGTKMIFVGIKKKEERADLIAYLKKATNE

Key:
[1] = molecular target: T1, FLAG-tagged mouse HIGD1C (HIGD1C-Myc-DDK) (mouse) (UniProt Q76I25); assay: co-IP
T1 sequence: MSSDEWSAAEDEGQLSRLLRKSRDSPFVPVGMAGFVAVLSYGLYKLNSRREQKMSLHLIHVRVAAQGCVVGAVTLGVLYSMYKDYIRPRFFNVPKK

[2] = molecular target: T2, FLAG-tagged human HIGD1C (HIGD1C-Myc-DDK) (human) (UniProt A8MV81); assay: co-IP
T2 sequence: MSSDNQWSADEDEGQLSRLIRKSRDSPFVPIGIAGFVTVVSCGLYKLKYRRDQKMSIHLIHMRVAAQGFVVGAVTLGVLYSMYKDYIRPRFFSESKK

binding [1]: binds
binding [2]: binds
Substance: cytochrome c (from UniProt P99999 1-105)
